Data source: PubChem BioAssay AID1259274 (Sanger Institute, 2017)

Screen: 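siRNA screen of kinases for partners that act in synergy with targeted drugs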 (primary screen)
System: human RKO colorectal cancer cells
Reagent: siRNA pool against human genes
Conditions: anchor drugs BYL719 at 1 µM, cetuximab at 5 µg/ml or trametinib at 10 nM; DMSO vehicle as the no-drug arm
Detection: 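Viability as fraction of non-targeting pool 2 control, averaged across replicates, robust z-score for single knock-down, and a combination synergy score per anchor drug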
Direction: viability z-score, siRNA alone: higher = more viable cells; low values mean essential gene
Call rule: 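Essential when the robust viability z-score with siRNA only falls below -3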
Meaning of the calls: active = essential when knocked down alone; inactive = no change alone
The whole screen tested 794 reagents; this is a random part of them. Of all reagents, 11 (1.4%) got an active call. 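Calls rest on knock-down without drug only; synergy scores with anchor drugs were not used for the essential call.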 Unmarked entries are inactive. Further read-outs or replicates are left out here. No sequences are given here. Not given: the amount of reagent, the time to read-out.

Target gene	viability z-score, siRNA alone
CHUK	1.1
NF1	0.6
CDK10	0.335
MARK2	-0.931
CALM3	-0.787
DGKA	-1.02
RPS6KL1	0.788
PKMYT1	0.58
MKNK2	0.183
PCK1	-1.04
PMVK	-0.0764
BRD4	-2.07
FLT3	0.489
TLK1	0.554
PDGFRA	-0.821
PLK1	-5.94 (active)

Entries listed so far with an active call (1):
Target gene	viability z-score, siRNA alone
PLK1	-5.94 (active)

Further results follow.
Target gene	viability z-score, siRNA alone
PTK6	0.186
GRK3	1.19
CLK2	-1.17
MYLK	-0.834
CNOT1	-0.901
LYN	0.347
IPPK	1.19
PTEN	1.19
IRAK4	0.189
MAP2K2	-0.393
